Values from PubChem BioAssay AID504808 (Drosophila RNAi Screening Center, 2011).
In all, the deposit lists about 21,000 reagents; shown is an unselected part of those with a known target gene and a result. In the full data, 18 (0.084%) got an active call. 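Raw counts without plate normalisation, one of two replicates; the ratio scores behind the calls were not deposited.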 A number with no mark means an inactive call. Reagents against one gene are numbered here. Names joined by + are all predicted targets of the reagent. Not given: the amount of reagent, the time to read-out.

Aim: 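Genes whose loss lifts activity of an E2F-responsive reporter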 (primary screen)
System: Drosophila S2 cells
Reagents: long dsRNA against Drosophila genes
Read-out: 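Firefly luciferase driven by E2F sites, normalised to Renilla luciferase on the same minimal promoter, measured by plate reader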
Reading the numbers: E2F firefly: higher = more E2F reporter activity; Renilla normaliser: higher = more normaliser reporter signal
Hit rule: 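Called active if the normalised E2F reporter went up by over 50%; the cutoff is arbitrary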

no.	predicted target	reagent no.	E2F firefly, rep 1	Renilla normaliser, rep 1
1	Nrx-IV (Neurexin IV)	1	74491	3636
2	Mt2 (Methyltransferase 2)	1	1.11e5	4224
3	CG1092	1	69997	3668
4	Alk (Anaplastic lymphoma kinase)	1	1.34e5	4670
5	Lcp1 (Larval cuticle protein 1)	1	1.49e5	4741
6	Mst27D (Male specific transcript 27D)	1	1.28e5	4690
7	ACXD (Adenylyl cyclase X D)	1	97662	3700
8	CG17036	1	97288	3808
9	CG43394	1	1.38e5	6462
10	CG14968	1	93614	3445
11	CG15706	1	1.49e5	5253
12	prc (pericardin)	1	1.10e5	5874
13	CG4945	1	65057	2968
14	Myo31DF (Myosin 31DF)	1	79734	3171
15	mtSSB (mitochondrial single stranded DNA-binding protein)	1	1.24e5	6912
16	CG11596	1	1685	988
17	CG42552 (retired record)	1	89976	3944
18	MESK2 (Misexpression suppressor of KSR 2)	1	1.01e5	4315
19	His3.3A (Histone H3.3A)	1	1.20e5	20312
20	kl-2 (male fertility factor kl2)	1	1.37e5	6654
21	Rab39	1	38922	3024
22	Uch (Ubiquitin carboxy-terminal hydrolase)	1	84800	3484
23	CG8952	1	8502	748
24	CG31913	1	1.30e5	5517
25	Blos2	1	69462	3214
26	Vha100-1 (Vacuolar H[+] ATPase 100kD subunit 1)	1	1773	1032
27	Ent2 (Equilibrative nucleoside transporter 2)	1	90711	3509
28	fz4 (frizzled 4)	1	1.11e5	5936
29	Abcd3 (ATP binding cassette subfamily D member 3)	1	1.32e5	5195
30	CG14369	1	1.14e5	6884
31	ana2 (anastral spindle 2)	1	2701	238
32	CG13040	1	1.79e5	8897
33	CG32373	1	1.37e5	4467
34	CG2608	1	51238	3031
35	Shal (Shaker cognate l)	1	92432	3663
36	Shal (Shaker cognate l)	2	1.49e5	7611
37	CG11905	1	88072	3892
38	Blos4	1	82341	5491
39	LysB (Lysozyme B)	1	1.01e5	3866
40	CG1324	1	1.62e5	5294
41	Atg12 (Autophagy-related 12)	1	1.01e5	5177
42	Cbs (Cystathionine beta-synthase)	1	1.44e5	5115
43	CG5447	1	99152	5495
44	alpha-Est5 (alpha-Esterase-5)	1	70857	3394
45	CG1421	1	99988	4216
46	CG10555	1	78863	4292
47	CG16772	1	92592	4032
48	didum (dilute class unconventional myosin)	1	1.52e5	5225
49	CG5892	1	1.16e5	6982

The list goes on (11 carried over from the part before).
no.	predicted target	reagent no.	E2F firefly, rep 1	Renilla normaliser, rep 1
39	LysB (Lysozyme B)	1	1.01e5	3866
40	CG1324	1	1.62e5	5294
41	Atg12 (Autophagy-related 12)	1	1.01e5	5177
42	Cbs (Cystathionine beta-synthase)	1	1.44e5	5115
43	CG5447	1	99152	5495
44	alpha-Est5 (alpha-Esterase-5)	1	70857	3394
45	CG1421	1	99988	4216
46	CG10555	1	78863	4292
47	CG16772	1	92592	4032
48	didum (dilute class unconventional myosin)	1	1.52e5	5225
49	CG5892	1	1.16e5	6982
50	CG11231 (retired record)	1	59173	3391
51	nrm (neuromusculin)	1	94954	3916
52	nrm (neuromusculin)	2	1.04e5	4013
53	nrm (neuromusculin)	3	1.45e5	7360
54	M1BP (Motif 1 Binding Protein)	1	1.02e5 (active)	3354
55	ple (pale)	1	85925	3992
56	snoRNA:U31:54Ec + snoRNA:snR38:54Eb + snoRNA:U27:54Eb + 8 more	1	1.51e5	4733
57	BNIP3	1	1.19e5	5451
58	CG9673	1	2.21e5	15081
59	Hinfp (Histone H4 transcription factor)	1	1.36e5	6225
60	RecQ5 (RecQ5 helicase)	1	77913	3744
61	nrv2 (nervana 2)	1	1.33e5	5685
62	nrv2 (nervana 2)	2	93942	4127
63	SLIRP2 (SRA stem-loop interacting RNA binding protein 2)	1	1.28e5	6314
64	Rcd7 (Reduction in Cnn dots 7)	1	1.18e5	6508
65	milt (milton)	1	1.28e5	4868
66	milt (milton)	2	1.09e5	5199
67	milt (milton)	3	94045	3969
68	Gos28 (Golgi SNARE, 28 kDa)	1	1.48e5	7338
69	CG7601	1	2033	844
70	CG31637	1	1.00e5	3643
71	CG31637	2	1.66e5	4938
72	CG13404	1	1.56e5	6329
73	CG33771	1	42648	3985
74	CG6144	1	54966	3193
75	Ir62a (Ionotropic receptor 62a)	1	87440	4149
76	CG5254	1	1.31e5	5242
77	shu (shutdown)	1	77442	3166
78	AANATL7 (Arylalkylamine N-acetyltransferase-like 7)	1	1.08e5	6737
79	RpS10b (Ribosomal protein S10b)	1	1.46e5	7025
80	CG1688	1	2771	174
81	CG2875	1	1809	868
82	CG9737	1	1.41e5	6946
83	ppk (pickpocket)	1	1.02e5	4181
84	Ns4 (Nucleostemin 4)	1	83514	3321
85	Mtmr6 (Myotubularin related protein 6)	1	1.01e5	3801
86	S-Lap4 (Sperm-Leucylaminopeptidase 4)	1	1.19e5	6264
87	PH4alphaMP (prolyl-4-hydroxylase-alpha MP)	1	1.31e5	6509
88	CG11300	1	1.02e5	4095
89	SppL (Signal peptide peptidase-like)	1	1.13e5	5748
90	htl (heartless)	1	72350	3675
91	S-Lap8 (Sperm-Leucylaminopeptidase 8)	1	70328	3218
92	CHMP2B (Charged multivesicular body protein 2b)	1	68635	3868
93	D19A	1	67376	3453
94	hoka	1	1.00e5	4056
95	CG5103	1	1.58e5	8234
96	Doc3 (Dorsocross3)	1	1.06e5	3537
97	nonC (no-on-and-no-off transient C)	1	6910	824
98	nonC (no-on-and-no-off transient C)	2	1.11e5	5399
99	CG31835 + CG42585	1	1.29e5	5139
100	sala (spalt-adjacent)	1	1.53e5	5017
101	Snoo (Sno oncogene)	1	1.31e5	5986
102	Snoo (Sno oncogene)	2	91250	3511
103	Snoo (Sno oncogene)	3	1.55e5	5011
104	CG11113	1	1.55e5	5520
105	Rubicon	1	95497	5120
106	CG11865	1	1.07e5	4577
107	CG4586	1	8080	764
